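A counter-screen in EP4-overexpressing cells measuring cyclic AMP with a time-resolved FRET kit under weak PGE2 stimulation.
Compounds were tested at 20 µM final. A low (about EC15) PGE2 dose was present.
Percent cAMP induction as a fraction of the 1 µM PGE2 response, averaged over three replicates; a higher value means more cAMP.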

Values are in %.
Common to all entries: measured here: EP4 receptor counter-screen.
This is a side read-out of the assay, for part of the compounds, not drawn at random.

compound | condition | cAMP induction (%)
CCCCc1nc2sc3c(SCC(=O)NCc4ccco4)ncnc3c2c2c1CCC2 | percent of 1 uM PGE2 response; plus low (about EC15) PGE2 agonist | 52.51
Cn1c(C(=O)N2CCCc3ccccc32)cc2sccc21 | percent of 1 uM PGE2 response; plus low (about EC15) PGE2 agonist | 0.1133
Cc1cccc(Cn2c(=O)n(Cc3ccco3)c(=O)c3ccccc32)c1 | percent of 1 uM PGE2 response; plus low (about EC15) PGE2 agonist | -9.387
O=C(Nc1ccccc1N1CCCCC1)c1ccc(Cl)c([N+](=O)[O-])c1 | percent of 1 uM PGE2 response; plus low (about EC15) PGE2 agonist | -9.847
CCOC(=O)c1c(NC(=O)c2ccn(CC)n2)sc2c1CCCC2 | percent of 1 uM PGE2 response; plus low (about EC15) PGE2 agonist | 1.857
COc1ccc(N2CCN(c3nc4c(c(=O)[nH]c(=O)n4C)n3Cc3cccc(C)c3)CC2)cc1 | percent of 1 uM PGE2 response; plus low (about EC15) PGE2 agonist | 6.063
CCOC(=O)C(Cc1ccccc1)(NC(C)=O)C(=O)OCC | percent of 1 uM PGE2 response; plus low (about EC15) PGE2 agonist | 7.743
O=C(c1cc2sccc2n1Cc1ccccc1)N1CCCc2ccccc21 | percent of 1 uM PGE2 response; plus low (about EC15) PGE2 agonist | -2.753
Cc1nc(NC(C)c2ccccc2)c2c3c(sc2n1)CCC3 (stereo not given) | percent of 1 uM PGE2 response; plus low (about EC15) PGE2 agonist | -9.403
COc1cc(OC)c(OC)cc1CNCCc1ccc(OC)c(OC)c1 | - | 6.87
Cc1ccc(S(=O)(=O)n2c3ccc(Cl)cc3c3nc(C)sc32)cc1 | percent of 1 uM PGE2 response; plus low (about EC15) PGE2 agonist | 9.203
N#Cc1c(-c2c(Cl)cccc2Cl)noc1/C=C/Nc1ccc(C(=O)O)cc1 | percent of 1 uM PGE2 response; plus low (about EC15) PGE2 agonist | -10.71
COc1ccccc1/C=N/N(C(C)=O)c1nc(-c2ccc(F)cc2)cs1 | percent of 1 uM PGE2 response; plus low (about EC15) PGE2 agonist | 2.073
COc1ccc(N=N/C(=C\O)C(=O)c2cccs2)cc1 | percent of 1 uM PGE2 response; plus low (about EC15) PGE2 agonist | -19.93
CN(c1ccccc1)c1nc(N2CCCC2)nc(-n2ccnc2)n1 | percent of 1 uM PGE2 response; plus low (about EC15) PGE2 agonist | -2.967
c1ccc(Nc2nc(N3CCNCC3)nc(N3CCOCC3)n2)cc1 | percent of 1 uM PGE2 response; plus low (about EC15) PGE2 agonist | 4.957
CC(C)=CCC/C(C)=C/CC/C(C)=C/CSc1ccccc1C(=O)O | percent of 1 uM PGE2 response; plus low (about EC15) PGE2 agonist | -9.097
COc1ccc(OC)c(C(=O)c2coc3ccc(OCC(=O)O)cc23)c1 | percent of 1 uM PGE2 response; plus low (about EC15) PGE2 agonist | -1.523
COc1c(O)ccc(/C=C(\C#N)c2nc3ccccc3[nH]2)c1[N+](=O)[O-] | percent of 1 uM PGE2 response; plus low (about EC15) PGE2 agonist | -6.533

Once more, the final 2:

compound,condition,cAMP induction (%)
COc1ccc(OC)c(C(=O)c2coc3ccc(OCC(=O)O)cc23)c1,percent of 1 uM PGE2 response; plus low (about EC15) PGE2 agonist,-1.523
COc1c(O)ccc(/C=C(\C#N)c2nc3ccccc3[nH]2)c1[N+](=O)[O-],percent of 1 uM PGE2 response; plus low (about EC15) PGE2 agonist,-6.533

From PubChem BioAssay record AID1080 (Emory University Molecular Libraries Screening Center, 2008).